Source: US9179682B2, “Biocides and apparatus” (A.Y. Laboratories Ltd., priority 2004, dated 2015)

Experiment: Reduction of Na2S: total sulfur and sulfate after addition of oxidizer, Series 7
Settings: 100 ml DI water with ~5 mg sodium sulfide; several days after addition of oxidizer

SMILES | % SO4 formed
O=N[O-].[Na+] [Test A, NaNO2] | 0%
N.NC(=O)O [Test B, ammonium carbamate] | 45.63%
